In PubChem BioAssay AID1259415 (National Center for Advancing Translational Sciences (NCATS), 2018):
About 18,000 (4.4%) of roughly 410,000 compounds were called active. The inconclusive results got no clear call from the source; some entries with a clear call stand among them for comparison. Cut-off read from the data, not from the text of the source: active = activity change below about -60%; inconclusive = no clear call, values can overlap the other calls; inactive = above about -39%.

Experiment: qHTS Assay for inhibitors of the human cytomegalovirus (HCMV)
Details: HFF cells, HCMV-luciferase reporter, 72 h; at 57.5 µM; active compounds read low
Method in brief: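 Two compound doses tested in HFFs infected with HCMV-luciferase, MOI 1 PFU/cell, 72 h at 37C. Lysate luminescence read with OneGlo; data normalized against buffer-only and 10uM Salinomycin inhibitor controls.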
% is set by controls: 0 for no effect and ±100 for the full control effect.

Compound	activity change, negative = inhibition
Cc1ccc(-n2c(/C=C/c3ccc(Br)s3)nc3ccccc3c2=O)cc1C	active: -64.8%
Cc1ccc(C)c(NC(=O)C2(C)CC3c4ccccc4C2c2ccccc23)c1 (stereo not given)	active: -105%
CCSc1nsc(NC(=O)Nc2cccc(F)c2)n1	active: -97.9%
CSc1ccc(CNC(=O)C2CCCN(S(=O)(=O)N(C)c3ccc(F)cc3)C2)cc1 (stereo not given)	active: -60.5%
CCCCC(Sc1nc(N)c(NC(=O)c2ccc(OCC)cc2)c(=O)[nH]1)C(=O)O (stereo not given)	inconclusive: -41.7%
O=c1c2c(nc3nc(NCc4ccccc4Cl)[nH]n13)CCC2	inconclusive: -49%
CCS(=O)(=O)c1nc(S(=O)(=O)c2ccc(Cl)cc2)c(NCCOC)s1	inconclusive: -40.3%
CCN1CCN(S(=O)(=O)c2c[nH]c(C(=O)OC)c2)CC1	inconclusive: -49.9%
N#CCCN(C(=O)COC(=O)c1cccc(S(=O)(=O)N2CCCC2)c1)c1ccc(F)cc1	active: -75.4%
CC1CC(C)CN(C(=O)CSc2ncnc3sccc23)C1 (stereo not given)	inconclusive: -53.7%
CC[C@H](C)[C@@H](C(=O)N1CCNCC1)n1cc([C@@H](N)CC(C)C)nn1	inactive: -11.6%
CCOC(=O)[C@]12Cc3cc(C)ccc3[C@H]1N(C(C)C)C(=O)c1ccccc12	active: -97.9%
O=C(CSc1ccc(F)cc1)N1CCC(c2nc3ccccc3s2)CC1	inconclusive: -53.1%
Cc1ccc(CN2CCN(Cc3ccccc3C(F)(F)F)CC2)cc1	inconclusive: -41.7%
Cc1ccc(S(=O)(=O)NCCC(=O)NCCN2CCCCCC2)cc1	inconclusive: -43%
COc1ccc(NC(=O)c2oc3ccccc3c2NC(=O)C2CCCO2)cc1OC (stereo not given)	inconclusive: -46.7%
COC(=O)c1ccc(C(=O)NC2CCCc3c2cnn3-c2ccc(C)c(C)c2)cc1 (stereo not given)	inconclusive: -52.5%
CCOc1ccc(C)cc1-n1nc2ccccc2n1	inactive: -2.74%
O=C(NCc1ccco1)/C(=C/C=C\c1ccccc1)NC(=O)c1ccc(Br)o1	active: -69.1%
N/C(=N\OC(=O)c1ccc2ccccc2c1)c1ccccn1	active: -83.4%
Cc1cc(C)c2c(N)c3cccc(C)c3nc2n1	active: -98.9%
Cn1c([N+](=O)[O-])cnc1N1CCN(c2nncs2)C1=O	inconclusive: -45.3%
CNC(=S)NC1CC2CCCC(C1)N2Cc1ccc(C)cc1 (stereo not given)	inactive: -3.75%
O=C(c1cc(COc2c(F)cccc2F)on1)N1CCN(C2CCCCC2)C(=O)C1	inconclusive: -42%
O=C(OCc1ccc([N+](=O)[O-])cc1)c1cc(S(=O)(=O)N2CCCCC2)ccc1N1CCOCC1	inconclusive: -59.3%
Cc1nc2cc(C(F)(F)F)ccc2n1CCNc1nc(-c2cc(Cl)c(N)c(Cl)c2)cs1	inconclusive: -41.2%
c1ccc(-c2onc(-c3ccco3)c2-c2ccc3[nH]ccc3c2)cc1	inconclusive: -49.6%
O=C1c2ccccc2C(O)(c2ccccc2)N1CCc1ccccc1 (stereo not given)	inconclusive: -50.8%

Compound	activity change, negative = inhibition
Clc1ccccc1CN1CCC(Cc2ccccc2)CC1	active: -101%
CCCCCOc1ccc(Cn2c(=O)oc3ccccc32)cc1	inactive: -11.8%
COc1ccc(NC(=O)c2cccc(-n3c(C)ccc3C)c2)c(OC)c1	inconclusive: -45.4%
CCOc1ccc(-c2c(C)n(-c3ccc(OCC)cc3)c3[n+]2CCCCC3)cc1	active: -94.8%
COc1cccc(NC(=O)CSC2=Nc3ccccc3C3=NC(CCC(=O)NCCc4ccccc4)C(=O)N23)c1 (stereo not given)	active: -67.6%
Cc1cccc(NC(=O)c2ccc3nc(C(C)C)oc3c2)c1C	inactive: -5.74%
COc1cccc(/C=C2\SC(=S)N(CCC(=O)N3CCCCC3CCO)C2=O)c1 (stereo not given)	active: -98.3%
Cc1cccc(/C=N/NC(=O)Cc2ccc(Cl)cc2)c1O	active: -89.3%
Cc1cc(N2CCN(c3nc4ccccc4s3)CC2)n2ncnc2n1	active: -102%
COc1ccccc1N1CCN(CC(O)COc2ccc(S(=O)(=O)N3CCOCC3)cc2)CC1 (stereo not given)	active: -69.6%
CCN(c1ccccc1)S(=O)(=O)c1cc(NC(=O)CSc2n[nH]c(=O)[nH]c2=O)ccc1Cl	inactive: 7.02%
CC(=O)c1ccc(S(=O)(=O)N2CCN(c3ccnc4cc(Cl)ccc34)CC2)cc1	active: -69.9%
C/C=C\C(=O)Nc1cccc(C2=NOC3(C2)C[C@@H](C(N)=O)N(C(=O)CC(c2ccccc2)c2ccccc2)C3)c1 (stereo not given in full)	inactive: -28%
CCCn1c(C(C)Nc2nc(-c3cccc(Br)c3)cs2)nc2ccccc21 (stereo not given)	inconclusive: -49.6%
CC(=O)N1N=C(c2ccco2)CC1c1ccc(Cl)o1 (stereo not given)	inactive: -7.66%
CC(C)(C)NC(=O)C(c1ccc(O)cc1)N(Cc1ccco1)C(=O)CCC(=O)Nc1ccccn1 (stereo not given)	inactive: 4.2%
CCC(=O)N1CCc2cc(S(=O)(=O)CCC(=O)N3CCN(c4ccc(Cl)cc4)CC3)ccc21	inconclusive: -55.6%
COc1ccc(OC)c(-c2nnc3n2N=C(c2ccc(OC)c(OC4CCCC4)c2)CS3)c1	active: -88.1%
CC(C)(C)c1ccccc1NC(=O)C1=COCCO1	inconclusive: -41.1%
CCCn1c(=O)sc2cc(NC(=O)c3ccc(OC)c(Br)c3)ccc21	inconclusive: -56.2%
Cc1ccc(NC(=O)c2cccc(N3C(=O)C4C5C=CC(C5)C4C3=O)c2)cc1C (stereo not given)	inconclusive: -49.4%
CC(C)CC(NS(=O)(=O)c1ccc2c(c1)oc(=O)n2C)C(=O)NCc1ccccc1Cl (stereo not given)	inactive: -14.5%
CC(=O)Nc1ccc(NC(=O)c2ccc(-c3ccccc3Cl)o2)cc1	inactive: -15.4%
CCOc1ccc(NC(=O)c2c(NC(=O)CNCCN3CCOCC3)sc3c2CCC3)cc1	inconclusive: -54.8%
Cc1ccc(NC(=O)COC(=O)C(NS(=O)(=O)c2ccc(Cl)cc2)C(C)O)cc1C (stereo not given)	inactive: -27.4%
COC1C(O)C(O)C(O)C(O)C1O (stereo not given)	inactive: 4.66%
Cc1ccc(-n2nc(CO)c(C(=O)NC(C)CCCc3ccccc3)n2)cc1 (stereo not given)	inactive: -17.1%

Copied from the list:
activity change, negative = inhibition, CCCn1c(=O)sc2cc(NC(=O)c3ccc(OC)c(Br)c3)ccc21 reads inconclusive: -56.2%
activity change, negative = inhibition, COC1C(O)C(O)C(O)C(O)C1O (stereo not given) reads inactive: 4.66%
